No constants are given. Whether binding was seen depends on the method and setting. In cells and extracts the contact can be indirect. Where a sequence is shown, tags or fusion partners need not be part of it.
Columns and labels:
Fg-HAUSP-ΔMATH (human) = experiment: co-IP; 293T cells co-transfected with two tagged constructs (Fg, Myc), lysed 48 h after transfection, IP and immunoblot by the tags; cells of Fig. 1 treated with 25 uM MG132 for 4 h before harvest
Fg-SPOP-ΔMATH (human) = experiment: as above

binding (Fg-HAUSP-ΔMATH (human)): no binding
binding (Fg-SPOP-ΔMATH (human)): no binding
B1: Myc-LZTS2 (protein, UniProt Q9BRK4 1-669)
chain: MAIVQTLPVPLEPAPEAATAPQAPVMGSVSSLISGRPCPGGPAPPRHHGPPGPTFFRQQDGLLRGGYEAQEPLCPAVPPRKAVPVTSFTYINEDFRTESPPSPSSDVEDAREQRAHNAHLRGPPPKLIPVSGKLEKNMEKILIRPTAFKPVLPKPRGAPSLPSFMGPRATGLSGSQGSLTQLFGGPASSSSSSSSSSAADKPLAFSGWASGCPSGTLSDSGRNSLSSLPTYSTGGAEPTTSSPGGHLPSHGSGRGALPGPARGVPTGPSHSDSGRSSSSKSTGSLGGRVAGGLLGSGTRASPDSSSCGERSPPPPPPPPSDEALLHCVLEGKLRDREAELQQLRDSLDENEATMCQAYEERQRHWQREREALREDCAAQAQRAQRAQQLLQLQVFQLQQEKRQLQDDFAQLLQEREQLERRCATLEREQRELGPRLEETKWEVCQKSGEISLLKQQLKESQAELVQKGSELVALRVALREARATLRVSEGRARGLQEAARARELELEACSQELQRHRQEAEQLREKAGQLDAEAAGLREPPVPPATADPFLLAESDEAKVQRAAAGVGGSLRAQVERLRVELQRERRRGEEQRDSFEGERLAWQAEKEQVIRYQKQLQHNYIQMYRRNRQLEQELQQLSLELEARELADLGLAEQAPCICLEEITATEI

Source: article PMC12848046
